Measurements from PubChem BioAssay AID328 (DTP/NCI, 2004).
The list shows only some results of the screen, not a fair sample: it is rich in T/C values a quarter to a half above the control, in often repeated tests (any T/C) and in doses without a T/C. Further doses and runs are listed elsewhere. T/C is the treated group as % of the vehicle group. Some doses have a count of surviving animals in place of a T/C: the source holds a T/C of zero for them, seemingly a mark for toxic or unscored doses. Some doses without a T/C left all or most animals alive at the check, yet need not have been tolerated: survival well below the control is almost never listed, so the zero probably covers shortened survival too. Survivors were counted at the toxicity check, usually on the fifth day, unless a day is given; later deaths do not show. Schedules are NCI's codes, read here as Q, the interval in days (D) or hours (H), X, the number of doses. Some entries hold several experiments; their values stand side by side, smallest first. Some structures stand for samples that the source files as different forms (salt, stereo form or complex); doses refer to the form tested. Marks such as (2×) give the number of equal values in this list. Where survival is the endpoint, the PubChem record calls one and a half times the control and up active, and a quarter to a half above the control has no call in these data; cut-offs in other NCI protocols can differ. Some T/C values carry the count of animals alive at the toxicity check (mostly the fifth day); without a count, all were alive then.

Tested on: BDF1 mice, P388 leukemia ip, median survival T/C
Test: NCI In Vivo Anticancer Drug Screen. Data for tumor model P388 Leukemia (intraperitoneal) in B6D2F1 (BDF1) mice
Settings: T/C endpoint: median survival time, higher T/C = longer survival
Summary of the method: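 Read-out is survival of treated animals expressed relative to the vehicle group, as a T/C ratio.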

[1] = dose: 0.39 mg/kg/injection, schedule: Q01DX009 (ip), vehicle: saline
[2] = dose: 4.0 mg/kg/injection, schedule: Q01DX009 (ip), vehicle: saline
[3] = dose: 8.0 mg/kg/injection, schedule: Q01DX009 (ip), vehicle: saline
[4] = dose: 16.0 mg/kg/injection, schedule: Q01DX009 (ip), vehicle: saline
[5] = dose: 25.0 mg/kg/injection, schedule: Q01DX009 (ip), vehicle: saline
[6] = dose: 37.5 mg/kg/injection, schedule: Q01DX009 (ip), vehicle: saline
[7] = dose: 50.0 mg/kg/injection, schedule: Q01DX009 (ip), vehicle: saline
[8] = dose: 75.0 mg/kg/injection, schedule: Q01DX009 (ip), vehicle: saline
[9] = dose: 100.0 mg/kg/injection, schedule: Q01DX009 (ip), vehicle: saline with Tween-80
[10] = dose: 100.0 mg/kg/injection, schedule: Q01DX009 (ip), vehicle: saline
[11] = dose: 100.0 mg/kg/injection, schedule: Q04DX003 (ip), vehicle: saline with Tween-80
[12] = dose: 150.0 mg/kg/injection, schedule: Q04DX003 (ip), vehicle: saline
[13] = dose: 50.0 mg/kg/injection, schedule: Q01DX009 (ip), vehicle: saline with Tween-80
[14] = dose: 200.0 mg/kg/injection, schedule: Q01DX009 (ip), vehicle: saline with Tween-80
[15] = dose: 100.0 mg/kg/injection, schedule: Q04DX003 (ip), vehicle: saline
[16] = dose: 200.0 mg/kg/injection, schedule: Q04DX003 (ip), vehicle: saline

Compound: CC1CC[N-]CC1.CC1CC[N-]CC1.CC1CC[N-]CC1.CC1CC[N-]CC1.[Pt+4]
- T/C [1]: 125 % of control
- survivor count [1]: 6 of 6
- survivor count [2]: 2 of 6
- survivor count (dose: 6.25 mg/kg/injection, schedule: Q04DX003 (ip), vehicle: saline): 1 of 6
- survivor count [3]: 0 of 6
- survivor count (dose: 12.5 mg/kg/injection, schedule: Q04DX003 (ip), vehicle: saline): 0 of 6
- survivor count [4]: 0 of 6
- survivor count (dose: 32.0 mg/kg/injection, schedule: Q01DX009 (ip), vehicle: saline): 0 of 6

Compound: CN1CCN(CCCN2c3ccccc3Sc3ccc(C(F)(F)F)cc32)CC1
- T/C (dose: 18.75 mg/kg/injection, schedule: Q01DX009 (ip), vehicle: saline): 127 % of control
- survivor count [5]: 6 of 6 (2×)
- survivor count [6]: 5 of 7
- T/C (dose: 37.5 mg/kg/injection, schedule: Q04DX003 (ip), vehicle: saline with Tween-80): 134 % of control
- T/C (dose: 37.5 mg/kg/injection, schedule: Q04DX003 (ip), vehicle: saline): 130 % of control
- survivor count [7]: 3 of 6 (2×)
- T/C (dose: 66.0 mg/kg/injection, schedule: Q04DX003 (ip), vehicle: saline with Tween-80): 141 and 145 % of control
- survivor count (dose: 67.0 mg/kg/injection, schedule: Q01DX009 (ip), vehicle: saline with Tween-80): 3 of 5
- survivor count [8]: 0 of 7
- T/C (dose: 75.0 mg/kg/injection, schedule: Q04DX003 (ip), vehicle: saline with Tween-80): 126 % of control
- survivor count [9]: 0 of 6
- survivor count [10]: 1 of 6
- T/C [11]: 141 % of control
- survivor count (dose: 150.0 mg/kg/injection, schedule: Q04DX003 (ip), vehicle: saline with Tween-80): 1 of 6 and 4 of 6
- survivor count [12]: 2 of 6
- survivor count (dose: 200.0 mg/kg/injection, schedule: Q04DX003 (ip), vehicle: saline with Tween-80): 3 of 6

Compound: CCn1cnc2c(=S)nc(N)[nH]c21
- survivor count (dose: 150.0 mg/kg/injection, schedule: Q04DX003 (ip), vehicle: Klucel (hydroxypropylcellulose) (HPC)): 1 of 6
- survivor count (dose: 225.0 mg/kg/injection, schedule: Q04DX003 (ip), vehicle: Klucel (hydroxypropylcellulose) (HPC)): 1 of 6
- survivor count (dose: 335.0 mg/kg/injection, schedule: Q04DX003 (ip), vehicle: Klucel (hydroxypropylcellulose) (HPC)): 2 of 6

Compound: S=P(N1CCOCC1)(N1CC1)N1CC1
- T/C (dose: 2.5 mg/kg/injection, schedule: Q01DX010 (ip), vehicle: saline): 125 % of control
- T/C (dose: 5.0 mg/kg/injection, schedule: Q01DX010 (ip), vehicle: saline): 136 and 140 % of control
- T/C (dose: 10.0 mg/kg/injection, schedule: Q01DX010 (ip), vehicle: saline): 130 and 131 % of control
- survivor count (dose: 20.0 mg/kg/injection, schedule: Q01DX010 (ip), vehicle: saline): 6 of 6

Compound: CN1Cc2cc3cc(c2O)C[N+](C)(C)Cc2c(Cl)c(c(Cl)c(c2Cl)C[N+](C)(C)C3)C1
- T/C (dose: 12.5 mg/kg/injection, schedule: Q01DX009 (ip), vehicle: saline): 127 % of control
- survivor count (dose: 100.0 mg/kg/injection, schedule: Q01DX001 (ip), vehicle: saline): 1 of 6

Compound: CC(C)CC1NC(=O)C(Cc2ccc(OCc3ccccc3)cc2)NC1=O (configuration not stated)
- T/C [11]: 127 % of control

Compound: CC1=CC(C(O)CC(C)C)C(C)(Cc2ccc(C)cn2)NC1c1ccccc1 (configuration not stated)
- survivor count [13]: 1 of 6
- survivor count [9]: 0 of 6
- survivor count [14]: 0 of 6

Compound: CC1(C)N=C(N)N=C(N)N1c1ccc(OCC(=O)N2CCOCC2)cc1
- T/C [10]: 131 % of control

Compound: CN(N=O)c1ccc(/C=C/c2ccnc3ccccc23)cc1
- T/C (dose: 50.0 mg/kg/injection, schedule: Q01DX009 (ip), vehicle: saline sonified): 125 % of control
- T/C (dose: 200.0 mg/kg/injection, schedule: Q01DX009 (ip), vehicle: saline sonified): 140 % of control

Compound: CCOC(=O)C(Cc1ccc(OC)c(OC)c1)C(Cc1ccc(OC)c(OC)c1)C(=O)OCC (configuration not stated)
- survivor count (dose: 400.0 mg/kg/injection, schedule: Q01DX009 (ip), vehicle: saline with Tween-80): 5 of 6

Compound: Cn1c(=N)ccn(C2OC(CO)C(O)C2O)c1=O (configuration not stated) (tested in a mixture with another compound)
- T/C [15]: 130 % of control

Compound: C=C1C(=O)OC2/C=C(\C)C3(O)C=CC(C)(CC(OC(=O)C(C)C)C12)O3 (configuration not stated)
- survivor count (dose: 20.0 mg/kg/injection, schedule: Q01DX009 (ip), vehicle: saline): 3 of 6

Compound: O=Nc1ccc(O)c2ncccc12
- T/C (dose: 100.0 mg/kg/injection, schedule: Q01DX001 (ip), vehicle: Klucel (hydroxypropylcellulose) (HPC)): 125 % of control
- T/C (dose: 200.0 mg/kg/injection, schedule: Q01DX001 (ip), vehicle: Klucel (hydroxypropylcellulose) (HPC)): 128 % of control

Compound: COc1cccc(CCCC(=O)O)c1
- survivor count (dose: 100.0 mg/kg/injection, schedule: Q04DX003 (ip), vehicle: Klucel (hydroxypropylcellulose) (HPC)): 6 of 6

Compound: Nc1nc(-c2ccccc2)cc2ccccc12
- survivor count (dose: 50.0 mg/kg/injection, schedule: Q04DX003 (ip), vehicle: saline with Tween-80): 2 of 6

Compound: CCCCCCCCOP(=O)(N1CC1)N1CC1
- survivor count [10]: 6 of 6
- survivor count [15]: 6 of 6
- survivor count [16]: 3 of 6
- survivor count (dose: 400.0 mg/kg/injection, schedule: Q04DX003 (ip), vehicle: saline): 0 of 6

Compound: N/C(=N\Cl)C(Cl)(Cl)Cl
- T/C [5]: 127 % of control
- T/C [6]: 148 % of control
- T/C (dose: 50.0 mg/kg/injection, schedule: Q04DX003 (ip), vehicle: saline): 127 % of control
- survivor count (dose: 56.3 mg/kg/injection, schedule: Q01DX009 (ip), vehicle: saline): 5 of 6 and 6 of 6

Compound: CC1CN1P(=O)(N1CCCC1)N1CC1C (configuration not stated)
- T/C [2]: 135 % of control
- T/C [3]: 138 % of control
- T/C (dose: 11.0 mg/kg/injection, schedule: Q01DX009 (ip), vehicle: saline): 137 % of control
- T/C [4]: 143 % of control
- T/C (dose: 16.5 mg/kg/injection, schedule: Q01DX009 (ip), vehicle: saline): 134 % of control
- survivor count (dose: 128.0 mg/kg/injection, schedule: Q01DX009 (ip), vehicle: saline): 6 of 6
- survivor count [16]: 6 of 6

Compound: CCCCCCCC(=O)Oc1c(Cl)c(Cl)c(C#N)c(Cl)c1C#N
- T/C [9]: 134 % of control [5 of 6 alive]
- survivor count [14]: 0 of 6

Compound: CCOC(=O)C(C(C)=O)C(C)C (configuration not stated)
- T/C (dose: 25.0 mg/kg/injection, schedule: Q01DX005 (ip), vehicle: other): 130 % of control
- T/C (dose: 50.0 mg/kg/injection, schedule: Q01DX005 (ip), vehicle: other): 126 % of control

Compound: C#CCSC(=N)N
- T/C [5]: 130 % of control
- survivor count [7]: 6 of 6
- survivor count [8]: 0 of 6 and 2 of 6
- survivor count [12]: 0 of 6

Compound: O=C(OC1C2C=CC(C(O)O2)C1c1ccccc1)c1ccc(Cl)cc1 (configuration not stated)
- survivor count (dose: 400.0 mg/kg/injection, schedule: Q01DX001 (ip), vehicle: saline with Tween-80): 6 of 6

Compound: CCOC1OCN(C)CC1(C)C (configuration not stated)
- T/C [13]: 140 % of control
- T/C (dose: 66.0 mg/kg/injection, schedule: Q01DX009 (ip), vehicle: saline): 136 % of control
- T/C [10]: 140 % of control
- T/C (dose: 150.0 mg/kg/injection, schedule: Q01DX009 (ip), vehicle: saline): 126 % of control

Compound: c1cc[c]([Sn]([c]2ccccc2)([c]2ccccc2)[n]2cncn2)cc1
- survivor count (dose: 12.5 mg/kg/injection, schedule: Q01DX009 (ip), vehicle: saline with Tween-80): 3 of 3

Compound: NN(C(=O)c1ccccc1)C1CCCCC1
- survivor count (dose: 100.0 mg/kg/injection, schedule: Q01DX009 (ip), vehicle: alcohol): 6 of 6
